No constants are given. Whether binding was seen depends on the method and setting. For part of these data: Binding seen in cells or lysates may run through a third protein. Some binding calls cover weakened binding; strength is not graded here. For part of these data: Sequences can lack the tags named with a protein.
Columns and labels:
[1] = target: T1, FliR-His (Salmonella enterica serovar Typhimurium) (UniProt P54702); assay: negative-stain EM; purified FliP(L92A)QR-His complex compared with the wild-type complex
T1 sequence: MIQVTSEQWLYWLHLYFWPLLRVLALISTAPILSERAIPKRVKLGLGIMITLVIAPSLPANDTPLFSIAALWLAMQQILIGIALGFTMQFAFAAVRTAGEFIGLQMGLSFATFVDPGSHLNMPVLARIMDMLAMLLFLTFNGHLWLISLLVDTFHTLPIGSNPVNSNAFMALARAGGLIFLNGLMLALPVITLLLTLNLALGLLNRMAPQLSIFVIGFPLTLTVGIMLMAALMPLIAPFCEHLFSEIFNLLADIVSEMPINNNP

[2] = target: T1, FliR-His (Salmonella enterica serovar Typhimurium); assay: pull-down + SEC; co-purification with FliR-His by Ni affinity chromatography, followed by size exclusion chromatography; complex solubilised with LMNG
[3] = target: FliP (Salmonella enterica serovar Typhimurium) (UniProt P54700); assay: cryo-EM structure; FliP, FliQ and FliR-His co-expressed in Salmonella SJW1368, complex solubilised with LMNG, purified and reconstituted in a peptidisc; single-particle analysis, C1 symmetry, 3.0 Å, closed form
[4] = target: T1, FliR-His (Salmonella enterica serovar Typhimurium); assay: as above

Measured: binding

B1: FliQ (protein, UniProt P0A1L5 1-89)
chain: MTPESVMMMGTEAMKVALALAAPLLLVALITGLIISILQAATQINEMTLSFIPKIVAVFIAIIVAGPWMLNLLLDYVRTLFSNLPYIIG
binds: [1] | [2]

B2: FliP (natural protein)
chain: QLPGLISQPLAGGGQSWSLSVQTLVFITSLTFLPAILLMMTSFTRIIIVFGLLRNALGTPSAPPNQVLLGLALFLTFFIMSPVIDKIYVDAYQPFSEQKISMQEALDKGAQPLRAFMLRQTREADLALFARLANSGPLQGPEAVPMRILLPAYVTSELKTAFQIGFTIFIPFLIIDLVIASVLMALGMMMVPPATIALPFKLMLFVLVDGWQLLMGSLAQSFYS
notes: FliP, Salmonella enterica serovar Typhimurium; signal peptide (residues 1 to 21) cleaved between Ala-21 and Gln-22 during membrane insertion; the mature protein begins at Gln-22; Five copies of FliP stand in the FliP5-FliQ4-FliR1 complex; also called mature FliP; FliP^1; source: membranes solubilised with 1% LMNG; reconstituted in a peptidisc
binds: all assays above
